Laboratory results: patent US7176287B2, “Methods of detecting interactions between proteins, peptides or libraries thereof using fusion proteins” (priority 2000, dated 2007)
pIC50: −log10 of the molar value. Part of at least one peptide drawing is inferred or uncertain, most often the ends. Where a SMILES comes first, the peptide text is derived from it.

Target: T1, NZGFP/CZGFP complex (Aequorea victoria, UniProt P42212, I167T)
T1 construct: made in house; host or cells: E. coli BL21(DE3)
Format: biochemical

## CC(C)C[C@H](NC(=O)[C@H](C)N)C(=O)N[C@@H](CCCCN)C(=O)N[C@@H](CCCCN)C(=O)N[C@@H](CCC(=O)O)C(=O)N[C@@H](CC(C)C)C(=O)N[C@@H](CCC(N)=O)C(=O)N[C@@H](C)C(=O)N[C@@H](CC(N)=O)C(=O)N[C@@H](CCCCN)C(=O)N[C@@H](CCCCN)C(=O)N[C@@H](CCC(=O)O)C(=O)N[C@@H](CC(C)C)C(=O)N[C@@H](C)C(=O)N[C@@H](CCC(N)=O)C(=O)N[C@@H](CC(C)C)C(=O)N[C@@H](CCCCN)C(=O)N[C@@H](Cc1c[nH]c2ccccc12)C(=O)N[C@@H](CCC(=O)O)C(=O)N[C@@H](CC(C)C)C(=O)N[C@@H](CCC(N)=O)C(=O)N[C@@H](C)C(=O)N[C@@H](CC(C)C)C(=O)N[C@@H](CCCCN)C(=O)N[C@@H](CCCCN)C(=O)N[C@@H](CCC(=O)O)C(=O)N[C@@H](CC(C)C)C(=O)N[C@@H](C)C(=O)N[C@@H](CCC(N)=O)C(=O)O [EK peptide] (H-ALKKELQANKKELAQLKWELQALKKELAQ-OH; N-terminus and C-terminus assumed)
Even at >1 mM added peptide inhibitor
  disassembly of an existing GFP complex: not achievable
read-out: IC50 for preventing assembly of the complex, NZGFP/CZGFP complex 4 μM, excitation 475 nm, emission 505 nm
  pIC50: 4.51
